Assay results as given in paper PMC2323286.
Results are given in words; binding and its absence hold for the method and conditions named. Tags and fused reporters may be left off the sequences shown.

Target: NSs of Germiston virus fused to the Gal4 DNA-binding domain (pGBKT7-NSsGER) (Germiston virus)
Test: two-hybrid

B1: SAP30 amino acids 1-152 fused to the Gal4 transactivating domain (pACT2-SAP30_(1–152)) (domain or fragment, UniProt O88574 1-152)
chain: MNGFTPEEMSRGGDAAAAVAAVVAAAAAAASAGNGNAAGGGAEVPGAGAVSASGPPGAAGPGPGQLCCLREDGERCGRAAGNASFSKRIQKSISQKKVKIELDKSARHLYICDYHKNLIQSVRNRRKRKGSDDDGGDSPVQDIDTPEVDLYQ
  binding: no binding
